Measurements from patent US20060024658A1, “Composition and methods for evaluating an organism's response to alcohol or stimulants” (priority 1998, published 2006).

Tested on: SHSY-5Y cells
Assay: Effects of alcohols on gene expression (array hybridization intensity) in SHSY-5Y cells, Study 1
Assay type: cell-based, human
Conditions: 100 mM ethanol
Source text: Hybridization strength is given a baseline of 1 and increased intensity is expressed in as a multiple of the baseline, i.e., 2-fold, 3-fold, 4-fold etc.
Column 1 lists the presumed functional class of the gene.
Columns are similar to Table 8.

CCO [ethanol]
number of genes increased in expression by 1.5-fold or more: Defense/homeostasis (acute, 2 hr): 1 | number of genes increased in expression: Cell structure (chronic, 72 hr): 2 | number of genes increased in expression: Defense/homeostasis (chronic, 72 hr): 0
